From the supplement of paper PMC6411743
± gives the standard deviation of the averaged measurements. This is one part of the list.

Sequences of proteins named here, by UniProt entry; tags and fusion partners are left off. A change or cut given only in a name is not applied to a line headed by its entry.
UniProt Q8IWJ2: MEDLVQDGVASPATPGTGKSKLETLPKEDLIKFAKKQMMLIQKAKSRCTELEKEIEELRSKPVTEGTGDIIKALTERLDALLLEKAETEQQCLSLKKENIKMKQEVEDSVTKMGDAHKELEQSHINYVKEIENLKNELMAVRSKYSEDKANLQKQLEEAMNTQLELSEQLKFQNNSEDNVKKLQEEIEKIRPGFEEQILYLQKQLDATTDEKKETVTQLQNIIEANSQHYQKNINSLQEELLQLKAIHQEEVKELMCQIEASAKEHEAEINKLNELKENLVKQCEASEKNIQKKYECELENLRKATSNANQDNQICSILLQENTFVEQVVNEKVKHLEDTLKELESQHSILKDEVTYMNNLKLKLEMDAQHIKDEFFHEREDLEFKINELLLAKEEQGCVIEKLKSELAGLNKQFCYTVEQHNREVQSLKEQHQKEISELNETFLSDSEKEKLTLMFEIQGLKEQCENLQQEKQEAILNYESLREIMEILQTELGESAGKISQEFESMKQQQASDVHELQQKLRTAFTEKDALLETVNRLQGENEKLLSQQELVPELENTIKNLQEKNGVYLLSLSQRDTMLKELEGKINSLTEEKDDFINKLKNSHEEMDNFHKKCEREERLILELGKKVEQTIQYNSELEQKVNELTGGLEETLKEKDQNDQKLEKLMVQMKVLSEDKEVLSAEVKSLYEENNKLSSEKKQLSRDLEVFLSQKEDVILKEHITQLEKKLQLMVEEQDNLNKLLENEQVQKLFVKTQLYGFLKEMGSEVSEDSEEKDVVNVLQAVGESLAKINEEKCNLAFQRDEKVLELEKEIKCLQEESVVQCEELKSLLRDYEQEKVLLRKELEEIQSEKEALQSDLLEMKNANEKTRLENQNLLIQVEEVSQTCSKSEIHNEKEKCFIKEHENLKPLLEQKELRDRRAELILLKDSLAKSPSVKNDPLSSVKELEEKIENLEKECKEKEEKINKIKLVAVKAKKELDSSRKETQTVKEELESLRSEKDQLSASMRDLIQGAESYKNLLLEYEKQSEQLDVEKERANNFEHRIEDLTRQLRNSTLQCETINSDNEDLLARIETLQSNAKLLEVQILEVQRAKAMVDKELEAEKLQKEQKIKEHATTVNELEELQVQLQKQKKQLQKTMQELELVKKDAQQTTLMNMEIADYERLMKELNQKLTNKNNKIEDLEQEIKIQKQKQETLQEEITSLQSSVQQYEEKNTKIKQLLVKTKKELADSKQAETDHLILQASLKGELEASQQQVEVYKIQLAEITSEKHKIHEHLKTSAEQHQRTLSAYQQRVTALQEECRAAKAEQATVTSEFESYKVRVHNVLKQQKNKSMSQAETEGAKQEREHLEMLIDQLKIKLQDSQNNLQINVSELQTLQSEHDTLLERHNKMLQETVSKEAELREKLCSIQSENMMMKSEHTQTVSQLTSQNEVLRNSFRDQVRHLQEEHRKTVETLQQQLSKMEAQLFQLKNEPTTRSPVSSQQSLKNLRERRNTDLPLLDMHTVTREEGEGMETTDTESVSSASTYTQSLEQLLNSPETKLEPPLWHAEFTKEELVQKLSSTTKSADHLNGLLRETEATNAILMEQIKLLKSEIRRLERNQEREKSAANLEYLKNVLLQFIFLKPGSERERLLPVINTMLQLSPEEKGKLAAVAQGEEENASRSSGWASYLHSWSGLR
UniProt Q8TDX7: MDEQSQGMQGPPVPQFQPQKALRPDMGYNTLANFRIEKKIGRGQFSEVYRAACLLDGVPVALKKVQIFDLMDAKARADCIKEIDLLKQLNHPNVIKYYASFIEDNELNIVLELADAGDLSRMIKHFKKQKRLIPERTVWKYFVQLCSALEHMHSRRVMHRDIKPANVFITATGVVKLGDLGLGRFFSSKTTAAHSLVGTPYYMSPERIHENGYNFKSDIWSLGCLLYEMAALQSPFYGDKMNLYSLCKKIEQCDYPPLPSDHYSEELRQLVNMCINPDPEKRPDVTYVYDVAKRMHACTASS
UniProt Q8IWV7: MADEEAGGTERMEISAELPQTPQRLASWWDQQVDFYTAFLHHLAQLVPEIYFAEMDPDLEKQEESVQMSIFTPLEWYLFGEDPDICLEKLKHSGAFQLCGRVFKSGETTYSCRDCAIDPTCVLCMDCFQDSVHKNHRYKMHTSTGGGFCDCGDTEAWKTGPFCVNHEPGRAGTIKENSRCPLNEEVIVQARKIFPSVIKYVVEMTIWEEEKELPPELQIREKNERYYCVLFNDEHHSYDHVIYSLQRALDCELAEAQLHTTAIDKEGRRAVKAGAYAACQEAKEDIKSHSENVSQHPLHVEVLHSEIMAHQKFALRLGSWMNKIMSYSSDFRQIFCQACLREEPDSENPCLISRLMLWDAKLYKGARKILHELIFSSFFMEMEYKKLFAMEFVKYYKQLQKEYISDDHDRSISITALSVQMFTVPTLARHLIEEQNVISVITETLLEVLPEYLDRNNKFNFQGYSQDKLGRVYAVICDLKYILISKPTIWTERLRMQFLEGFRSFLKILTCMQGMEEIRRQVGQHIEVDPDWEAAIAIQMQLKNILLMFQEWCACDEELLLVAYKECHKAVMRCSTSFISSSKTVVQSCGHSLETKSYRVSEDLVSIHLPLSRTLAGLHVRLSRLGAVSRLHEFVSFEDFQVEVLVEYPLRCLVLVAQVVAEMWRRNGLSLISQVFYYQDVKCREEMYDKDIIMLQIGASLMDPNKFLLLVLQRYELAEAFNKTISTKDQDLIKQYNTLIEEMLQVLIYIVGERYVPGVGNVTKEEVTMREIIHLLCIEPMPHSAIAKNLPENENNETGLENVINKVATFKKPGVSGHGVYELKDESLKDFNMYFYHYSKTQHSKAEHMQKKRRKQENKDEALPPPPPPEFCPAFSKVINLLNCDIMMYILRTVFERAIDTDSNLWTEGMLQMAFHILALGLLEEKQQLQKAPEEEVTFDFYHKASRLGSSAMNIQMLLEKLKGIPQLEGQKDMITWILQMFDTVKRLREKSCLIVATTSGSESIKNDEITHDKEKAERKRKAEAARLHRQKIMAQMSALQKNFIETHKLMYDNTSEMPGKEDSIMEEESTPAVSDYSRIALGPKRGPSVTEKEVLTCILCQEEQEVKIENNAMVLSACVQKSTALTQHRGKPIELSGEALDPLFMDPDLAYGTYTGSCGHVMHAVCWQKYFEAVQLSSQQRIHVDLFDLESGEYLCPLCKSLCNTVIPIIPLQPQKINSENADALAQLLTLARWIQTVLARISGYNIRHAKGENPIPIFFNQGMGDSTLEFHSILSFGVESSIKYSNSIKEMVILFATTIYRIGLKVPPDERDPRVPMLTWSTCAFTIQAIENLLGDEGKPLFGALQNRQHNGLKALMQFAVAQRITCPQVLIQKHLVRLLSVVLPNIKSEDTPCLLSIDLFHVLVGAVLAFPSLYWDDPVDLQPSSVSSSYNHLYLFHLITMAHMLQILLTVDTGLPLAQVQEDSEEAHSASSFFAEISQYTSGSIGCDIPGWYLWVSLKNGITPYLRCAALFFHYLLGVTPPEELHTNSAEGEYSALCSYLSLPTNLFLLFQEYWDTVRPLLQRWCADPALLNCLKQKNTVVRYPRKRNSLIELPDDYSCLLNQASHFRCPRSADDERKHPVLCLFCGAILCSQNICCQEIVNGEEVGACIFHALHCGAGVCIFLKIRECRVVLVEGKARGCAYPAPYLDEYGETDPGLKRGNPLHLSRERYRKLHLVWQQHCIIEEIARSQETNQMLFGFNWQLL
UniProt Q8IXI2: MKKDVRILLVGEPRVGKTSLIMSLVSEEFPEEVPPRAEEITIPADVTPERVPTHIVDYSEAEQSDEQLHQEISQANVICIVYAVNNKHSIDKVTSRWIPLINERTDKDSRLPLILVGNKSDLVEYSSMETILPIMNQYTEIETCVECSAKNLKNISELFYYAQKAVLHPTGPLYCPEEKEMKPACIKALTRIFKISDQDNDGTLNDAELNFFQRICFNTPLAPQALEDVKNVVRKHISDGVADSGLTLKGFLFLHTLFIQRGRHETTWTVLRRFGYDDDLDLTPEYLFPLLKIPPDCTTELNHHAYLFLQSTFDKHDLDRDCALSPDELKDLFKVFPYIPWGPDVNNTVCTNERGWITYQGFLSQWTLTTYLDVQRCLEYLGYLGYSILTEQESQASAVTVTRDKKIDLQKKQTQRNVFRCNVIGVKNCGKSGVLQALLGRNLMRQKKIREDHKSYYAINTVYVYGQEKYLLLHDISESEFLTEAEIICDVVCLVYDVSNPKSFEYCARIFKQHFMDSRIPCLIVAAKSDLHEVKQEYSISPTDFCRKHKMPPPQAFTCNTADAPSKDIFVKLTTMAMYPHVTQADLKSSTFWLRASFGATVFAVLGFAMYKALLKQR
UniProt Q8ND82: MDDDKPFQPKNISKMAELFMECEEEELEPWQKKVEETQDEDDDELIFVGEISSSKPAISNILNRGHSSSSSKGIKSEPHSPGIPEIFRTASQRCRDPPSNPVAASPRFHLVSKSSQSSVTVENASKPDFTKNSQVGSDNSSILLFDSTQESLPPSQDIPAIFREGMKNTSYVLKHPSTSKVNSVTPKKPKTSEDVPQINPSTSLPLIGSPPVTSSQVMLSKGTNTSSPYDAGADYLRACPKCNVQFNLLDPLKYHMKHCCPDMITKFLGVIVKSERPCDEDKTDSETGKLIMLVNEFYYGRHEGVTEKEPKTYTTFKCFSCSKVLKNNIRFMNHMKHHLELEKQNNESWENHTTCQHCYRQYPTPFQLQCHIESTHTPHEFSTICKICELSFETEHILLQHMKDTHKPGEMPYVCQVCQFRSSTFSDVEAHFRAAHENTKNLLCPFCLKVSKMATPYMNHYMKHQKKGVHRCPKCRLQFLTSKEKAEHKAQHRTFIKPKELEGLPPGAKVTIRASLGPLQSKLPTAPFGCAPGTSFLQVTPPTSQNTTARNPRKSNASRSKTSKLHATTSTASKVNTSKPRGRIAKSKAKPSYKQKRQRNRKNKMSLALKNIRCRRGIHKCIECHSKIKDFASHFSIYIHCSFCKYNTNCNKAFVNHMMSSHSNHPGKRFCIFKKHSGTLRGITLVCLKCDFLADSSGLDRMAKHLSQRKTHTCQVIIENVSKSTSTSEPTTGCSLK
UniProt Q8N6Q8: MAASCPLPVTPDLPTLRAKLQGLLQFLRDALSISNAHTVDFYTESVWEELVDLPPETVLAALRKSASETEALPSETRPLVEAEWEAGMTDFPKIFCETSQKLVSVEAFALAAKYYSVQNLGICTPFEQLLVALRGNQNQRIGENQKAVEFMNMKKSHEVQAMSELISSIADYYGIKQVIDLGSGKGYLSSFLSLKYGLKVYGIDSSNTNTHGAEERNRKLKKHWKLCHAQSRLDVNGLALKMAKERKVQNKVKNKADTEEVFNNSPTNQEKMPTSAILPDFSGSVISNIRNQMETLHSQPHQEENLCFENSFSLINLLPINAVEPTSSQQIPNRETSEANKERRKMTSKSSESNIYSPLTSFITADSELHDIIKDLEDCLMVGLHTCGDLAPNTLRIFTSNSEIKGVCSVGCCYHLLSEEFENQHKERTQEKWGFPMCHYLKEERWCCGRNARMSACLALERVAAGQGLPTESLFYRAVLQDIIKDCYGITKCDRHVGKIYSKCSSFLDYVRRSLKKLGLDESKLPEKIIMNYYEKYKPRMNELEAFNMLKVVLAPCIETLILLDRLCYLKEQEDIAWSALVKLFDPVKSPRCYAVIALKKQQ
UniProt Q8NC56: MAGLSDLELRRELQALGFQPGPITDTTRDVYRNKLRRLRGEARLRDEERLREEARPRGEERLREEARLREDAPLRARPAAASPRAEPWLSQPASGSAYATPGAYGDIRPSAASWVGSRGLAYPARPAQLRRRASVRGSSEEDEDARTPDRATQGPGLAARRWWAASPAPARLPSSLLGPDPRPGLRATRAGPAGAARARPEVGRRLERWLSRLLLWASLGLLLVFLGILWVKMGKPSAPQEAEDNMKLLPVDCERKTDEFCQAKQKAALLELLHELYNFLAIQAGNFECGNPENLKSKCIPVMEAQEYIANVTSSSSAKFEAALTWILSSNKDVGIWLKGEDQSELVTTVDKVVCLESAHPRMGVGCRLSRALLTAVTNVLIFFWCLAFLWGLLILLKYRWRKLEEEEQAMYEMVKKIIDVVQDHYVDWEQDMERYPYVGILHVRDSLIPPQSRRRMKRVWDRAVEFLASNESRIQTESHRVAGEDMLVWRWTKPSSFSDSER
UniProt Q8IXU6: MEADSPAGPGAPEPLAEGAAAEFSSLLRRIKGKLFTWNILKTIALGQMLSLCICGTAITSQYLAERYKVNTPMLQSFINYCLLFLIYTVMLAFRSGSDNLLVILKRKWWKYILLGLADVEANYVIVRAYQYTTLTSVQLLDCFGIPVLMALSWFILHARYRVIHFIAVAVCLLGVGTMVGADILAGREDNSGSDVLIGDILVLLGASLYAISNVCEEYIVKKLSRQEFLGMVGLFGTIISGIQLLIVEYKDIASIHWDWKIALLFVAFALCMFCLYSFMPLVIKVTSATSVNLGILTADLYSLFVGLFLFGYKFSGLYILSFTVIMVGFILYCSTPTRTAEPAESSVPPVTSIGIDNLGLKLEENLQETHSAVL

Compound: Nc1nc2c(ncn2[C@@H]2O[C@H](COP(=O)(O)OP(=O)(O)OP(=O)(O)O)[C@@H](O)[C@H]2O)c(=O)[nH]1 [guanosine triphosphate]
Experiment: NP40-soluble protein abundance relative to vehicle (solubility fold change) (ratio); higher = more soluble protein in presence of GTP
In short: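 Jurkat crude lysate prepared with a Dounce homogeniser was treated at eight concentrations spanning 0.1 to 10 mM, 10 min at room temperature then 3 min at 37 °C. Solubilisation with 0.8% NP40 and benzonase and ultracentrifugation preceded TMT labelling of the supernatant for LC-MS/MS. Fold change against the detergent-processed vehicle was determined per replicate from vsn-normalised intensities, across three independent experiments.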

STT3B (UniProt Q8TCJ2) gave an NP40-soluble protein abundance (concentration: 0.1mM) of 1.05 ± 0.021, an NP40-soluble protein abundance (concentration: 0.5mM) of 1.09 ± 0.052 and an NP40-soluble protein abundance (concentration: 1mM) of 1 ± 0.014. The NP40-soluble protein abundance (concentration: 2mM) was 1.03 ± 0.042, the NP40-soluble protein abundance (concentration: 4mM) was 1.02 ± 0.026 and the NP40-soluble protein abundance (concentration: 6mM) was 1.01 ± 0.017. The NP40-soluble protein abundance (concentration: 8mM) was 1.01 ± 0.013 and the NP40-soluble protein abundance (concentration: 10mM) was 0.999 ± 0.051.
With UniProt Q8NDX1 and related entries the NP40-soluble protein abundance (concentration: 0.1mM) was 1.01 ± 0.07, the NP40-soluble protein abundance (concentration: 0.5mM) was 1.08 ± 0.1 and the NP40-soluble protein abundance (concentration: 1mM) was 1.13 ± 0.13. For the same target, the NP40-soluble protein abundance (concentration: 2mM) was 1.07 ± 0.093, the NP40-soluble protein abundance (concentration: 4mM) was 1.03 ± 0.11 and the NP40-soluble protein abundance (concentration: 6mM) was 1.08 ± 0.067. The NP40-soluble protein abundance (concentration: 8mM) was 1.14 ± 0.042 and the NP40-soluble protein abundance (concentration: 10mM) was 1.05 ± 0.14.
UniProt Q8N684 and related entries showed an NP40-soluble protein abundance (concentration: 0.1mM) of 1.02 ± 0.054, an NP40-soluble protein abundance (concentration: 0.5mM) of 1.15 ± 0.05 and an NP40-soluble protein abundance (concentration: 1mM) of 1.27 ± 0.051. The NP40-soluble protein abundance (concentration: 2mM) was 1.34 ± 0.12, the NP40-soluble protein abundance (concentration: 4mM) was 1.45 ± 0.14 and the NP40-soluble protein abundance (concentration: 6mM) was 1.51 ± 0.19. For the same target, the NP40-soluble protein abundance (concentration: 8mM) was 1.57 ± 0.24 and the NP40-soluble protein abundance (concentration: 10mM) was 1.53 ± 0.23.
In the case of UniProt Q8N9B5 and related entries, the NP40-soluble protein abundance (concentration: 0.1mM) is reported as 1.03 ± 0.056, the NP40-soluble protein abundance (concentration: 0.5mM) is reported as 1.01 ± 0.14 and the NP40-soluble protein abundance (concentration: 1mM) is reported as 1.05 ± 0.096. It also gave an NP40-soluble protein abundance (concentration: 2mM) of 1 ± 0.11, an NP40-soluble protein abundance (concentration: 4mM) of 0.997 ± 0.077 and an NP40-soluble protein abundance (concentration: 6mM) of 1.04 ± 0.081. It also gave an NP40-soluble protein abundance (concentration: 8mM) of 0.918 ± 0.074 and an NP40-soluble protein abundance (concentration: 10mM) of 0.901 ± 0.063.
GCC2 (UniProt Q8IWJ2) showed an NP40-soluble protein abundance (concentration: 0.1mM) of 0.972 ± 0.04, an NP40-soluble protein abundance (concentration: 0.5mM) of 0.957 ± 0.043 and an NP40-soluble protein abundance (concentration: 1mM) of 0.998 ± 0.054. For the same target, the NP40-soluble protein abundance (concentration: 2mM) was 0.967 ± 0.078, the NP40-soluble protein abundance (concentration: 4mM) was 0.96 ± 0.078 and the NP40-soluble protein abundance (concentration: 6mM) was 0.941 ± 0.06. For the same target, the NP40-soluble protein abundance (concentration: 8mM) was 0.993 ± 0.019 and the NP40-soluble protein abundance (concentration: 10mM) was 0.953 ± 0.05.
With NEK7 (UniProt Q8TDX7) the NP40-soluble protein abundance (concentration: 0.1mM) was 1.025 ± 0.0041, the NP40-soluble protein abundance (concentration: 0.5mM) was 1 ± 0.066 and the NP40-soluble protein abundance (concentration: 1mM) was 0.965 ± 0.014. For the same target, the NP40-soluble protein abundance (concentration: 2mM) was 0.944 ± 0.0075, the NP40-soluble protein abundance (concentration: 4mM) was 0.956 ± 0.021 and the NP40-soluble protein abundance (concentration: 6mM) was 0.945 ± 0.026. For the same target, the NP40-soluble protein abundance (concentration: 8mM) was 0.9061 ± 0.0028 and the NP40-soluble protein abundance (concentration: 10mM) was 0.891 ± 0.015.
With UBR1 (UniProt Q8IWV7) the NP40-soluble protein abundance (concentration: 0.1mM) was 1.007 ± 0.0044, the NP40-soluble protein abundance (concentration: 0.5mM) was 0.971 ± 0.039 and the NP40-soluble protein abundance (concentration: 1mM) was 0.942 ± 0.045. For the same target, the NP40-soluble protein abundance (concentration: 2mM) was 0.922 ± 0.042, the NP40-soluble protein abundance (concentration: 4mM) was 0.921 ± 0.11 and the NP40-soluble protein abundance (concentration: 6mM) was 1 ± 0.025. For the same target, the NP40-soluble protein abundance (concentration: 8mM) was 0.8726 ± 0.0079 and the NP40-soluble protein abundance (concentration: 10mM) was 0.877 ± 0.062.
Work on UniProt Q8IXI2 and related entries yielded an NP40-soluble protein abundance (concentration: 0.1mM) of 1.05 ± 0.021, an NP40-soluble protein abundance (concentration: 0.5mM) of 0.969 ± 0.023 and an NP40-soluble protein abundance (concentration: 1mM) of 0.953 ± 0.072. For the same target, the NP40-soluble protein abundance (concentration: 2mM) was 0.972 ± 0.065, the NP40-soluble protein abundance (concentration: 4mM) was 1.03 ± 0.044 and the NP40-soluble protein abundance (concentration: 6mM) was 0.911 ± 0.075. For the same target, the NP40-soluble protein abundance (concentration: 8mM) was 0.938 ± 0.066 and the NP40-soluble protein abundance (concentration: 10mM) was 0.928 ± 0.078.
For UniProt Q8ND82 and related entries, the NP40-soluble protein abundance (concentration: 0.1mM) was 1.04 ± 0.085, the NP40-soluble protein abundance (concentration: 0.5mM) was 1.01 ± 0.028 and the NP40-soluble protein abundance (concentration: 1mM) was 1.14 ± 0.099. For the same target, the NP40-soluble protein abundance (concentration: 2mM) was 1.08 ± 0.065, the NP40-soluble protein abundance (concentration: 4mM) was 1.08 ± 0.14 and the NP40-soluble protein abundance (concentration: 6mM) was 1.11 ± 0.21. For the same target, the NP40-soluble protein abundance (concentration: 8mM) was 1.14 ± 0.054 and the NP40-soluble protein abundance (concentration: 10mM) was 1.31 ± 0.095.
UniProt Q86YS7 and related entries showed an NP40-soluble protein abundance (concentration: 0.1mM) of 0.9788 ± 0.0071, an NP40-soluble protein abundance (concentration: 0.5mM) of 1 ± 0.038 and an NP40-soluble protein abundance (concentration: 1mM) of 0.942 ± 0.05. It also gave an NP40-soluble protein abundance (concentration: 2mM) of 1 ± 0.057, an NP40-soluble protein abundance (concentration: 4mM) of 0.968 ± 0.042 and an NP40-soluble protein abundance (concentration: 6mM) of 1 ± 0.048. The NP40-soluble protein abundance (concentration: 8mM) was 0.981 ± 0.054 and the NP40-soluble protein abundance (concentration: 10mM) was 1.01 ± 0.082.
With UniProt Q8N6Q8 the NP40-soluble protein abundance (concentration: 0.1mM) was 1.07 ± 0.067, the NP40-soluble protein abundance (concentration: 0.5mM) was 0.921 ± 0.061 and the NP40-soluble protein abundance (concentration: 1mM) was 1.06 ± 0.029. For the same target, the NP40-soluble protein abundance (concentration: 2mM) was 1.01 ± 0.22, the NP40-soluble protein abundance (concentration: 4mM) was 0.983 ± 0.09 and the NP40-soluble protein abundance (concentration: 6mM) was 0.952 ± 0.051. It also gave an NP40-soluble protein abundance (concentration: 8mM) of 0.902 ± 0.038 and an NP40-soluble protein abundance (concentration: 10mM) of 0.937 ± 0.11.
Target UniProt Q86XP3 and related entries has an NP40-soluble protein abundance (concentration: 0.1mM) of 1.01 ± 0.015, an NP40-soluble protein abundance (concentration: 0.5mM) of 1 ± 0.014 and an NP40-soluble protein abundance (concentration: 1mM) of 1 ± 0.029. It also gave an NP40-soluble protein abundance (concentration: 2mM) of 1.004 ± 0.008, an NP40-soluble protein abundance (concentration: 4mM) of 1.05 ± 0.022 and an NP40-soluble protein abundance (concentration: 6mM) of 1.04 ± 0.013. It also gave an NP40-soluble protein abundance (concentration: 8mM) of 1.06 ± 0.03 and an NP40-soluble protein abundance (concentration: 10mM) of 1.05 ± 0.024.
Work on LEMD2 (UniProt Q8NC56) yielded an NP40-soluble protein abundance (concentration: 0.1mM) of 1.09 ± 0.04, an NP40-soluble protein abundance (concentration: 0.5mM) of 1.22 ± 0.11 and an NP40-soluble protein abundance (concentration: 1mM) of 1.32 ± 0.076. For the same target, the NP40-soluble protein abundance (concentration: 2mM) was 1.34 ± 0.15, the NP40-soluble protein abundance (concentration: 4mM) was 1.34 ± 0.088 and the NP40-soluble protein abundance (concentration: 6mM) was 1.42 ± 0.11. It also gave an NP40-soluble protein abundance (concentration: 8mM) of 1.48 ± 0.14 and an NP40-soluble protein abundance (concentration: 10mM) of 1.49 ± 0.21.
Target UniProt Q8IXU6 and related entries has an NP40-soluble protein abundance (concentration: 0.1mM) of 1.08 ± 0.16, an NP40-soluble protein abundance (concentration: 0.5mM) of 1.11 ± 0.16 and an NP40-soluble protein abundance (concentration: 1mM) of 0.996 ± 0.17. The NP40-soluble protein abundance (concentration: 2mM) was 1.01 ± 0.11, the NP40-soluble protein abundance (concentration: 4mM) was 1.06 ± 0.045 and the NP40-soluble protein abundance (concentration: 6mM) was 1.05 ± 0.064. For the same target, the NP40-soluble protein abundance (concentration: 8mM) was 0.961 ± 0.17 and the NP40-soluble protein abundance (concentration: 10mM) was 0.979 ± 0.12.
UBA3 (UniProt Q8TBC4) gave an NP40-soluble protein abundance (concentration: 0.1mM) of 1.03 ± 0.018, an NP40-soluble protein abundance (concentration: 0.5mM) of 1.01 ± 0.02 and an NP40-soluble protein abundance (concentration: 1mM) of 0.9609 ± 0.0082. For the same target, the NP40-soluble protein abundance (concentration: 2mM) was 0.956 ± 0.053, the NP40-soluble protein abundance (concentration: 4mM) was 0.967 ± 0.017 and the NP40-soluble protein abundance (concentration: 6mM) was 0.943 ± 0.032. For the same target, the NP40-soluble protein abundance (concentration: 8mM) was 0.914 ± 0.029 and the NP40-soluble protein abundance (concentration: 10mM) was 0.927 ± 0.052.
